Data as given in PubChem BioAssay AID1259405 (NCATS, 2018).

Assay: 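Knock-downs that lift recombinant protein yield in hamster ovary cells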 (primary screen)
System: Chinese hamster CHO-K1 ovary cells with stable secreted eGFP expression
Reagent: single siRNA against mouse genes, 0.8 pmol siRNA per well (2 µl of 400 nM stock)
Time to read-out: 3 days
Read-out: 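Per-well intracellular GFP measured by laser scanning cytometry, plus viability from ATP luminescence, each relative to plate median of non-targeting control wells, in %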
Scale: GFP, % of control: higher = more GFP per well, higher productivity; viability (ATP), % of control: higher = more viable cells (more ATP)
Call rule: 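a knock-down is called active if GFP reaches 120% or more of non-targeting control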
In all, the deposit lists about 50,000 reagents; shown is a part drawn at random. About 4,000 of all reagents (8%) count as active. 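Mouse siRNA library applied to hamster cells; one well for each siRNA.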 A number with no mark means an inactive call. The numbers tell different reagents against one gene apart.

| gene symbol | reagent | GFP, % of control | viability (ATP), % of control |
| --- | --- | --- | --- |
| Caskin1 | 1 | 91.2 | 86.8 |
| Caskin1 | 2 | 120 (active) | 83.1 |
| Bglap3 | 1 | 101 | 93.1 |
| Bglap3 | 2 | 92.1 | 79.2 |
| Pigm | 1 | 88.9 | 44.2 |
| Pigm | 2 | 86.8 | 74.5 |
| Pigm | 3 | 86.5 | 97.6 |
| Med16 | 1 | 110 | 104 |
| Med16 | 2 | 66.8 | 63.5 |
| Med16 | 3 | 82.5 | 63.9 |
| Tmem68 | 1 | 96.1 | 61.8 |
| Tmem68 | 2 | 54.2 | 37 |
| Tmem68 | 3 | 55.9 | 77.9 |
| Tmem168 | 1 | 81.4 | 72.9 |
| Tmem168 | 2 | 70 | 92.6 |
| Tmem168 | 3 | 83.3 | 74.3 |
| Sox21 | 1 | 72 | 72.7 |
| Sox21 | 2 | 90.1 | 81.8 |
| Sox21 | 3 | 90.3 | 90.5 |
| Ttc5 | 1 | 60.6 | 81.7 |
| Ttc5 | 2 | 58.4 | 98.1 |
| Ttc5 | 3 | 45.7 | 62.9 |
| Klrc3 | 1 | 38.1 | 28.2 |
| Klrc3 | 2 | 105 | 93.7 |
| Klrc3 | 3 | 62 | 49.7 |
| Svbp | 1 | 30 | 21.2 |
| Svbp | 2 | 81.8 | 67.1 |
| Svbp | 3 | 49.5 | 73 |
| Vtcn1 | 1 | 59.4 | 54.5 |
| Vtcn1 | 2 | 116 | 95.9 |
| Vtcn1 | 3 | 88.9 | 121 |
| Agrn | 1 | 125 (active) | 95.5 |
| Agrn | 2 | 77.5 | 45.1 |
| Agrn | 3 | 114 | 140 |
| Sec24c | 1 | 76.5 | 97.3 |
| Sec24c | 2 | 121 (active) | 89.4 |
| Ces5a | 1 | 171 (active) | 126 |
| Ces5a | 2 | 117 | 94.4 |
| Ces5a | 3 | 74.7 | 41.9 |
| Dxo | 1 | 77.9 | 86.8 |
| Dxo | 2 | 68.2 | 90.6 |
| Dxo | 3 | 60 | 86.7 |
| Hoxd3 | 1 | 125 (active) | 115 |
| Hoxd3 | 2 | 136 (active) | 116 |
| Hoxd3 | 3 | 77.9 | 91.4 |
| Pank2 | 1 | 90.6 | 85.1 |
| Pank2 | 2 | 67.3 | 57.3 |
| Pank2 | 3 | 68.8 | 74 |
| Tigd4 | 1 | 29 | 69.2 |
| Tigd4 | 2 | 120 | 85.8 |
| Tigd4 | 3 | 104 | 94.2 |
| Fhl4 | 1 | 65.6 | 74.6 |
| Fhl4 | 2 | 62.7 | 62.2 |
| Fhl4 | 3 | 148 (active) | 96.8 |
| Abcg2 | 1 | 82.9 | 99.1 |
| Abcg2 | 2 | 55.4 | 58 |
| Abcg2 | 3 | 77.2 | 93.8 |

Records listed above with an active call, once more:
| gene symbol | reagent | GFP, % of control | viability (ATP), % of control |
| --- | --- | --- | --- |
| Caskin1 | 2 | 120 (active) | 83.1 |
| Agrn | 1 | 125 (active) | 95.5 |
| Sec24c | 2 | 121 (active) | 89.4 |
| Ces5a | 1 | 171 (active) | 126 |
| Hoxd3 | 1 | 125 (active) | 115 |
| Hoxd3 | 2 | 136 (active) | 116 |
| Fhl4 | 3 | 148 (active) | 96.8 |
